Test results reported in patent US20050244864A1, “Development and use of fluorescent probes of unbound analytes” (priority 2004, published 2005).

Amino acid sequences for entries named in this document (tags omitted). A change or cut given only in a name is not applied to a line headed by its entry.
UniProt P02693: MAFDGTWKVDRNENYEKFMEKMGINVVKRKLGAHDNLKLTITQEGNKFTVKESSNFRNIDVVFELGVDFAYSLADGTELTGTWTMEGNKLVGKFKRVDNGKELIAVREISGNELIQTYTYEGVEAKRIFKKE

B1: L2P12C5: acrylodan-labeled rI-FABP-L72A mutein: M18 I, G31 I, F55 M, A73 I (protein, UniProt P02693 2-132, looked up, variant M18I G31I F55M L72A A73I)
Fatty acid-binding protein, …: AFDGTWKVDRNENYEKFIEKMGINVVKRKLIAHDNLKLTITQEGNKFTVKESSNMRNIDVVFELGVDFAYSAIDGTELTGTWTMEGNKLVGKFKRVDNGKELIAVREISGNELIQTYTYEGVEAKRIFKKE
modifications: acrylodan label
B2: L2P8A6: acrylodan-labeled rI-FABP-L72A mutein: M18 I, G31 V, F55 V, A73 V (protein, UniProt P02693 2-132, looked up, variant M18I G31V F55V L72A A73V)
Fatty acid-binding protein, …: AFDGTWKVDRNENYEKFIEKMGINVVKRKLVAHDNLKLTITQEGNKFTVKESSNVRNIDVVFELGVDFAYSAVDGTELTGTWTMEGNKLVGKFKRVDNGKELIAVREISGNELIQTYTYEGVEAKRIFKKE
modifications: acrylodan label
B3: L2P17H10: acrylodan-labeled rI-FABP-L72A mutein: M18 G, G31 F, F55 WT, A73 L (protein, UniProt P02693 2-132, looked up, variant M18G G31F L72A A73L)
Fatty acid-binding protein, …: AFDGTWKVDRNENYEKFGEKMGINVVKRKLFAHDNLKLTITQEGNKFTVKESSNFRNIDVVFELGVDFAYSALDGTELTGTWTMEGNKLVGKFKRVDNGKELIAVREISGNELIQTYTYEGVEAKRIFKKE
modifications: acrylodan label
notes: acrylodan-labeled rI-FABP-L72A mutein: M18 G, G31 F, F55 WT, A73 L
B4: L2P22G6: acrylodan-labeled rI-FABP-L72A mutein: M18 I, G31 Y, F55 WT, A73 G (protein, UniProt P02693 2-132, looked up, variant M18I G31Y L72A A73G)
Fatty acid-binding protein, …: AFDGTWKVDRNENYEKFIEKMGINVVKRKLYAHDNLKLTITQEGNKFTVKESSNFRNIDVVFELGVDFAYSAGDGTELTGTWTMEGNKLVGKFKRVDNGKELIAVREISGNELIQTYTYEGVEAKRIFKKE
modifications: acrylodan label
notes: acrylodan-labeled rI-FABP-L72A mutein: M18 I, G31 Y, F55 WT, A73 G
B5: L2P11B4: acrylodan-labeled rI-FABP-L72A mutein: M18 V, G31 A, F55 WT, A73 W (protein, UniProt P02693 2-132, looked up, variant M18V G31A L72A A73W)
Fatty acid-binding protein, …: AFDGTWKVDRNENYEKFVEKMGINVVKRKLAAHDNLKLTITQEGNKFTVKESSNFRNIDVVFELGVDFAYSAWDGTELTGTWTMEGNKLVGKFKRVDNGKELIAVREISGNELIQTYTYEGVEAKRIFKKE
modifications: acrylodan label
notes: acrylodan-labeled rI-FABP-L72A mutein: M18 V, G31 A, F55 WT, A73 W
B6: L2P2E11: acrylodan-labeled rI-FABP-L72A mutein: M18 I, G31 F, F55 WT, A73 WT (protein, UniProt P02693 2-132, looked up, variant M18I G31F L72A)
Fatty acid-binding protein, …: AFDGTWKVDRNENYEKFIEKMGINVVKRKLFAHDNLKLTITQEGNKFTVKESSNFRNIDVVFELGVDFAYSAADGTELTGTWTMEGNKLVGKFKRVDNGKELIAVREISGNELIQTYTYEGVEAKRIFKKE
modifications: acrylodan label
B7: L2P4C5: acrylodan-labeled rI-FABP-L72A mutein: M18 I, G31 Y, F55 WT, A73 WT (protein, UniProt P02693 2-132, looked up, variant M18I G31Y L72A)
Fatty acid-binding protein, …: AFDGTWKVDRNENYEKFIEKMGINVVKRKLYAHDNLKLTITQEGNKFTVKESSNFRNIDVVFELGVDFAYSAADGTELTGTWTMEGNKLVGKFKRVDNGKELIAVREISGNELIQTYTYEGVEAKRIFKKE
modifications: acrylodan label

Experiment: Mutant probe screening: baseline fluorescence ratio Ro and fatty acid response phenotype
Type: binding
Details: fluorescence ratio for zero FFAu concentration
Method: The intensity ratio (“R” value) for a given probe is determined. The ratio is calculated using the following formula: R=Fλ1/Fλ2 wherein, Fλ1, is the measured fluorescence intensities (intensity of sample with probe present minus intensity of sample without probe present) at wavelength 1 and Fλ2 is the measured fluorescence intensities (intensity of sample with probe present minus intensity of sample without probe present) at wavelength 2. Then, for a given probe, ΔR, the difference in R value between the measurement in the presence of the analyte and in the absence of the analyte, is calculated as follows: ΔR=R+analyte−R0 The ΔR value for a given probe is then compared to a reference probe, for example, ADIFAB or ADIFAB2, by ΔR/ΔRreference. This value is an indication of how dissimilar the new probe (derived by mutation of the template) is to the reference. By this method, probes with new and useful characteristics may be identified. Measurements of fluorescence intensities are obtained using standard techniques.
Plates were prepared and read in two stages. First, complexes and fatty acid free BSA were diluted to 6 μM BSA in HEPES and added to the 96-well plate at 300 μL per well. A MultiProbe II HT (Perkin Elmer) (an automated liquid handling system) was used to facilitate plate preparation for high throughput screening, but any automated or manual pipetting system will suffice. The background fluorescence was then measured at the same wavelengths as used for ADIFAB2 using a Fluorolog-3 spectrofluorometer with an external Micromax 384 fluorescence plate reader (Jobin Yvon). In the second stage, 30 μL aliquots of the mutant probes were added to multiple wells of the plate, one for each fatty acid and one with fatty acid free BSA only, and the fluorescence intensity at each wavelength was again measured on the plate reader. After subtraction of the background fluorescence, the fluorescence ratio of each well was calculated.
The fluorescence response was quantitatively compared to ADIFAB2 to search for changes in magnitude and fatty acid profile; for example the response to one fatty acid relative to another. For each probe the ratio differences (AR) between wells with each fatty acid compared to a corresponding well with fatty acid free BSA were recorded. The relative response compared to ADIFAB2 was calculated by dividing AR for each fatty acid by that for ADIFAB2 (ΔR/ΔRAD2). Probes that show large (ΔR/ΔRAD2) and different (ΔR/ΔRAD2) for different fatty acids were chosen for larger scale production and calibration. The methods described above can be used to screen other fatty acids and/or other unbound metabolites using other plate readers. We have attained equivalent results, for example, using the Gemini EM dedicated fluorescence plate reader (Molecular Devices).
Screening was conducted by evaluating ΔR/ΔRreference as described in paragraphs 0053-0055 and Example 1 for the following fatty acids: palmitate, palmitoleate, stearate, oleate, linoleate, linolenate and arachidonate, where the reference was to ADIFAB2. The screening rate was increased by use of 384 well plates. In this case the total well volume was reduced to 100 μL and the volume of probe used per well was 10 μL. Because the identity of each mutant probe was unknown in this example, the probes of interest were organized according to phenotype. Typically, phenotypic clusters could be generated by grouping unknown probes that gave Ro and ΔR/ΔRAD2 values within 10 to 20% of each other. The clone ID specifies the second library and well position of each clone. The fluorescence ratio for zero FFAu concentration (Ro) is shown in the second column. The remaining 7 columns are the ratios of the fluorescence response (R-Ro) for each probe relative to ADIFAB2 for arachidonate, linolenate, linoleate, oleate, palmitate, palmitoleate and stearate. […]

Q: Which Ro does the source give for B1 here?
A: 0.39

Q: Which Ro does the source give for B2 here?
A: 0.36

Q: With B3 as the molecule, how does the Ro read?
A: 0.23

Q: With B4 as the molecule, how does the Ro read?
A: 0.30

Q: Which Ro does the source give for B5 here?
A: 0.35

Q: For B6, which Ro is on record?
A: 0.31

Q: With B7 as the molecule, how does the Ro read?
A: 0.35
